The source of these data is paper PMC11023358.

Amino acid sequences for entries named in this document (tags omitted).
UniProt O88271: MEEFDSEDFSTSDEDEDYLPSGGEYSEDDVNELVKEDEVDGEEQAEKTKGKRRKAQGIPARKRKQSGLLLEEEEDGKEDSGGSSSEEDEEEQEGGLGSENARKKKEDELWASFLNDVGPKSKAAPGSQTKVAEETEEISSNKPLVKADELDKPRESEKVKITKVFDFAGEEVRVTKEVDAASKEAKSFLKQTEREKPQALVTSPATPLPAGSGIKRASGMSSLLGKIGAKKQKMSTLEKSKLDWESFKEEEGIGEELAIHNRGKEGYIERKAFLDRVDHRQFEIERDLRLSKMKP

These are yes or no findings as the source states them, for the method shown. In cells and extracts the contact can be indirect. A yes stands for co-enrichment or nearness to the bait. Other partners may have been found.

In this assay the target is 3XFLAG-tagged full-length CFDP1 stably expressed in NIH3T3 cells (mouse) (UniProt O88271). The assay is described as follows: affinity purification with mass spectrometry; MS analysis of proteins interacting with 3XFLAG-tagged CFDP1 in NIH3T3 cells.

B1: RCC1 (regulator of chromatin condensation I protein), endogenous in NIH3T3 cells (protein, UniProt Q8VE37 1-421)
chain: MPPKRIAKRRSPPEDAIPKSKKVKVSHRSHNTEPGLVLTLGQGDVGQLGLGESVLERKKPALVPLLQDVVQAEAGGMHTVCLSQSGQVYSFGCNDEGALGRDTSVEGSEMVPGKVELQEKVVQVSAGDSHTAALTEDGRVFLWGSFRDNNGVIGLLEPMKKSMVPVQVQLDAPVVKVASGNDHLVMLTNDGDLYTLGCGEQGQLGRVPELFANRGGRQGLGRLLVPRCVLLKSRGTRGRVRFQDAFCGAYFTFAISREGHVYGFGLSNYHQLGTPGTGSCFIPQNLTSFKNSTKSWVGFSGGQHHTVCMDSEGKAYSLGRAEYGRLGLGEGAEEKSIPTLISRLPVVSSVACGASVGYAVSKDGRVFAWGMGTNYQLGTGQDEDAWSPVEMTGKQLENRVVLTVSSGGQHTVLLVKDQAQS
Consider B1, for which the binding entry was “binds”.
